The source of these data is PMC4230799.

Chains of the proteins cited; added tags and fusions are not shown. Residues count along the entry.
UniProt P23467, residues 23-1997: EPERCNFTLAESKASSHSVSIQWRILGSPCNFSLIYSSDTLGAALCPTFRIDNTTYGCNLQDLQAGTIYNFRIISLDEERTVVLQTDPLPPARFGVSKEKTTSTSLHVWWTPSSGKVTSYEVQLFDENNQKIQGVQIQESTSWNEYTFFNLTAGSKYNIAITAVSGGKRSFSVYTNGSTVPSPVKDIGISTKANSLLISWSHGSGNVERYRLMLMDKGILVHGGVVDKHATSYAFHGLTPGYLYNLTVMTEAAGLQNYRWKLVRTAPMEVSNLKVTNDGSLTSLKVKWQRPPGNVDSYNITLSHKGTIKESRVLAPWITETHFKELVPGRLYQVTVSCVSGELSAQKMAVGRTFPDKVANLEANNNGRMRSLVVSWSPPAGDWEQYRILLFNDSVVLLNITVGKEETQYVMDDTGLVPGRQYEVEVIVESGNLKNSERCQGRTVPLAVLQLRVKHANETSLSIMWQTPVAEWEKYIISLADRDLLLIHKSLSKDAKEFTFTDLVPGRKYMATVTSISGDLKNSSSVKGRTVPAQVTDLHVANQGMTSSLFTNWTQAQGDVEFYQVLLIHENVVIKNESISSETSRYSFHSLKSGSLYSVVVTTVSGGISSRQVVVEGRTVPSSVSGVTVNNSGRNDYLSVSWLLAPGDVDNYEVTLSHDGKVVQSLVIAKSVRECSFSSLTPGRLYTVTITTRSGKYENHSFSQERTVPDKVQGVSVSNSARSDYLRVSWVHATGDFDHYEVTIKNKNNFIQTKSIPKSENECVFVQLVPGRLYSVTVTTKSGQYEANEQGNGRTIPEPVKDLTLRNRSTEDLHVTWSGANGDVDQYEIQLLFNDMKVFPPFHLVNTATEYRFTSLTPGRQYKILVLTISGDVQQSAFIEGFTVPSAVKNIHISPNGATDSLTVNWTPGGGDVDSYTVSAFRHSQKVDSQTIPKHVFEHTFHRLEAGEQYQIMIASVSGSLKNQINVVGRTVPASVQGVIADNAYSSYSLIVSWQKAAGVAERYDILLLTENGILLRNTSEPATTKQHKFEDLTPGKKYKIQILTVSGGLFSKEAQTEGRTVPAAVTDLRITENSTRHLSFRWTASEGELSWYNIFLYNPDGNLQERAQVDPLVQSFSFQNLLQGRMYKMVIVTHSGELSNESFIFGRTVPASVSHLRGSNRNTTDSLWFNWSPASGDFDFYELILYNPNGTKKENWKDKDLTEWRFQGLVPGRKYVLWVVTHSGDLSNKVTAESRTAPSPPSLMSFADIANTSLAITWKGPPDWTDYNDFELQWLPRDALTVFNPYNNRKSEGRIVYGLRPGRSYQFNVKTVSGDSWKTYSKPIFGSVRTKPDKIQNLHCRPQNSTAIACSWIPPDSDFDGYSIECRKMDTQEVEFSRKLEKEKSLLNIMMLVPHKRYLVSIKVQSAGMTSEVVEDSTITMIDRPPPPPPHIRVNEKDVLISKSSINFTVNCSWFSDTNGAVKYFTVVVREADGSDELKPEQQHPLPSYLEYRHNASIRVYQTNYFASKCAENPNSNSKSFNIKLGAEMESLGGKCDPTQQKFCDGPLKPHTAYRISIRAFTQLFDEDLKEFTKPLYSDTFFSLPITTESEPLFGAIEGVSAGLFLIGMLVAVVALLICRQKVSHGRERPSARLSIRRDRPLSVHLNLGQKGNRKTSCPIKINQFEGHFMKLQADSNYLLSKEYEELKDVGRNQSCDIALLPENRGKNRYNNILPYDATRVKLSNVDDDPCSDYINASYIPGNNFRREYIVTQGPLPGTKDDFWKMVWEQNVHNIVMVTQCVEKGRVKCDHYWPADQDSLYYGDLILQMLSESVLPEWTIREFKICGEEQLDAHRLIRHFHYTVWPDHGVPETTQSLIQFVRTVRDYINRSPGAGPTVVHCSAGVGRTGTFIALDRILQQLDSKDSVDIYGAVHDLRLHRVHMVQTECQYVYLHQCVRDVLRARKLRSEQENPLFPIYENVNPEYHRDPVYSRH

No constants are given. Whether binding was seen depends on the method and setting. In cells and extracts the contact can be indirect. Some entries that bind do so weakly or less than the wild type.

Test [1] addresses T1, vascular endothelial-cadherin (human (endogenous in hBMVECs)) (UniProt P33151).
T1 sequence: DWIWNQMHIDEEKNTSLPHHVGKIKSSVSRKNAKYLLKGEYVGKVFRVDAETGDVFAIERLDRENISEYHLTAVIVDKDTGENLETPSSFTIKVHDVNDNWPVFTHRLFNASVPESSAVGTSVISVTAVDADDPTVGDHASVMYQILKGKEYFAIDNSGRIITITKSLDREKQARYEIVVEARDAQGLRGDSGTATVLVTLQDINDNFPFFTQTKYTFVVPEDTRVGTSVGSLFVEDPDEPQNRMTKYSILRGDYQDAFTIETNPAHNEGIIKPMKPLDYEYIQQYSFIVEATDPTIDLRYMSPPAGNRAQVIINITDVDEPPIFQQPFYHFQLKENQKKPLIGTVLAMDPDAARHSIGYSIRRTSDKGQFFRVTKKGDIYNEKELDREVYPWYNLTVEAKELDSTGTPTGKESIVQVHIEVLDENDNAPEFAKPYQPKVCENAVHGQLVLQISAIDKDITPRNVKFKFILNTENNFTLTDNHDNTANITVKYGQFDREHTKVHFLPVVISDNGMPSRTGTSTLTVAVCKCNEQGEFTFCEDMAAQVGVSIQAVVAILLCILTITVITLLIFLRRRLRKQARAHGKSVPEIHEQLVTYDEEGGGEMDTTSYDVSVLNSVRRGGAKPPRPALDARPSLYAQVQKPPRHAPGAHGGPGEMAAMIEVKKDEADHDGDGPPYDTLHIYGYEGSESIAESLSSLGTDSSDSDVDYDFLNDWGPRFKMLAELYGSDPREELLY
In words: co-IP.

The target of test [2] is T2, vascular endothelial-cadherin (human (endogenous in hBMVECs)), P33151.
T2 chain: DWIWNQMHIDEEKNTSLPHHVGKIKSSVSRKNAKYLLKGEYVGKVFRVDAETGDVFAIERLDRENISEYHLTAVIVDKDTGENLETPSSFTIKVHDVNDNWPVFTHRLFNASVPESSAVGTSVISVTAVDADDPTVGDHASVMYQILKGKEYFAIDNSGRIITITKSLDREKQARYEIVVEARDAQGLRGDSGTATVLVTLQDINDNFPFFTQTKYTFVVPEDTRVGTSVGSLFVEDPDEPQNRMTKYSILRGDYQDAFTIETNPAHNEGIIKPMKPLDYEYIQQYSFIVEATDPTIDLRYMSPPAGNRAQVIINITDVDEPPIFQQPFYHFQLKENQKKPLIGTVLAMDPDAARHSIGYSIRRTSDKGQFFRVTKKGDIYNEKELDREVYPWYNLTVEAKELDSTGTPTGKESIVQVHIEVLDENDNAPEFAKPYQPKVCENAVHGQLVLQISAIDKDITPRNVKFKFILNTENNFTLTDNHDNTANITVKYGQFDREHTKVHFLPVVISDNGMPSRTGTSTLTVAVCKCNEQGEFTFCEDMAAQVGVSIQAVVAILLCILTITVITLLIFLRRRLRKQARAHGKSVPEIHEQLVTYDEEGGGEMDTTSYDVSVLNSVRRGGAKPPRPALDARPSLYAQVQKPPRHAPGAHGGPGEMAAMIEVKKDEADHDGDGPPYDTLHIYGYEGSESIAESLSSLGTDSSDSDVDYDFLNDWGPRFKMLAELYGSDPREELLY
In words: co-IP. The note with it: remark: other sources report otherwise.

As for VE-PTP (from UniProt P23467 23-1997), the binding result in test [1] is on record as “binds”.

B1: β-catenin, P35222 1-781 (protein)
chain: MATQADLMELDMAMEPDRKAAVSHWQQQSYLDSGIHSGATTTAPSLSGKGNPEEEDVDTSQVLYEWEQGFSQSFTQEQVADIDGQYAMTRAQRVRAAMFPETLDEGMQIPSTQFDAAHPTNVQRLAEPSQMLKHAVVNLINYQDDAELATRAIPELTKLLNDEDQVVVNKAAVMVHQLSKKEASRHAIMRSPQMVSAIVRTMQNTNDVETARCTAGTLHNLSHHREGLLAIFKSGGIPALVKMLGSPVDSVLFYAITTLHNLLLHQEGAKMAVRLAGGLQKMVALLNKTNVKFLAITTDCLQILAYGNQESKLIILASGGPQALVNIMRTYTYEKLLWTTSRVLKVLSVCSSNKPAIVEAGGMQALGLHLTDPSQRLVQNCLWTLRNLSDAATKQEGMEGLLGTLVQLLGSDDINVVTCAAGILSNLTCNNYKNKMMVCQVGGIEALVRTVLRAGDREDITEPAICALRHLTSRHQEAEMAQNAVRLHYGLPVVVKLLHPPSHWPLIKATVGLIRNLALCPANHAPLREQGAIPRLVQLLVRAHQDTQRRTSMGGTQQQFVEGVRMEEIVEGCTGALHILARDVHNRIVIRGLNTIPLFVQLLYSPIENIQRVAAGVLCELAQDKEAAEAIEAEGATAPLTELLHSRNEGVATYAAAVLFRMSEDKPQDYKKRLSVELTSSLFRTEPMAWNETADLGLDIGAQGEPLGYRQDDPSYRSFHSGGYGQDALGMDPMMEHEMGGHHPGADYPVDGLPDLGHAQDLMDGLPPGDSNQLAWFDTDL
Regarding B1, the binding result in test [2] is given as “binds”.
